Assay results published in PubChem BioAssay AID1671190 (National Center for Advancing Translational Sciences (NCATS), 2021).
In all, about 580,000 compounds went through this assay and about 6,100 (1.1%) were called active. Inconclusive means that the source gave no clear call. Such entries were picked first, then a sample of the others. Calls come from the whole dose curve; as a rule, active = well fitted inhibition curve with a large enough effect; inconclusive = small, poorly fitted or top-dose-only effect, or another doubt; inactive = no such curve, though single readings can be large or run the other way. Potencies beside an inconclusive call are fits to weak or partial responses and may not hold up.

By UniProt entry, the sequences of proteins in these tests, tags left out.
UniProt P18054, whole entry, looked up: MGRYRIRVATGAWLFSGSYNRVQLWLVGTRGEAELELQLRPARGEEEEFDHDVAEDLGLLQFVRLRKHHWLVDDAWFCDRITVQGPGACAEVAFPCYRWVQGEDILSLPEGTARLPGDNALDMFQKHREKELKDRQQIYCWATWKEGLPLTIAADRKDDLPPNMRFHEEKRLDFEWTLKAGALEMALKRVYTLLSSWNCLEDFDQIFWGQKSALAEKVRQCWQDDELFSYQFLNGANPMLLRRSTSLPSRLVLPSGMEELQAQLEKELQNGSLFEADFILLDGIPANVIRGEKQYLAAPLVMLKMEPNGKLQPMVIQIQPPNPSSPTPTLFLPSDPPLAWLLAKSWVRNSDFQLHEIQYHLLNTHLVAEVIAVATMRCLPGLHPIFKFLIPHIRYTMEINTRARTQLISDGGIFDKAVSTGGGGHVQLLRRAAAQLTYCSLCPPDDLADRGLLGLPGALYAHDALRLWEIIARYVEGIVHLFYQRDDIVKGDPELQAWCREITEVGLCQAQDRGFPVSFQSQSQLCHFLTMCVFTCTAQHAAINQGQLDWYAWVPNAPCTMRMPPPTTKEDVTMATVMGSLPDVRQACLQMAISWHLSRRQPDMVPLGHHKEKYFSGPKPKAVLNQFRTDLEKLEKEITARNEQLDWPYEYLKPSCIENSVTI

The molecules below were run against Polyunsaturated fatty acid lipoxygenase ALOX12 (Homo sapiens) (UniProt P18054) (assay: Primary qHTS assay for inhibitors of human arachidonate 12S-lipoxygenase (ALOX12): Round 2). Conditions: purified 12hLO, xylenol orange hydroperoxide absorbance; series mostly up to 108 µM.
Method in brief: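 Purified human 12hLO at 150 nM in 25 mM Hepes, 0.01% Triton X-100, pH 7.0, preincubated 15 min at room temperature with compound. Reaction started with 40 uM arachidonic acid, 30 min at room temperature. Hydroperoxide measured by Fe-xylenol orange, 573/405 nm absorbance ratio.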
Potency is the fitted concentration of half-maximal effect.

Question: `Cc1ccc2nc(SCc3nc4ccccc4c(=O)[nH]3)[nH]c2c1` was tested. Which Potency did it give?
Answer: inconclusive: 39.8 µM [inhibitor, partial curve, poor fit]

Question: With `COc1ccc(-c2coc3c(C(=O)NCc4ccccc4)cccc23)c(C)c1` as the molecule, how does the Potency read?
Answer: inconclusive: 100 µM [inhibitor, single point]

Question: With `COc1cc(C#N)ccc1OC(C(=O)NC1CC1)c1ccc(F)cc1` (stereo not drawn) as the molecule, how does the Potency read?
Answer: inactive

Question: How did the Potency turn out when `Oc1ccc(CNCC2COc3ccccc3O2)cc1` (stereo not drawn) was run?
Answer: inconclusive: 1.12 µM [inhibitor, full curve]

Question: With `COC(=O)C1=C(C(=O)OC)SC(=C(Cl)C(=S)NCc2ccccc2)S1` as the molecule, how does the Potency read?
Answer: inconclusive: 35.5 µM [inhibitor, partial curve, poor fit]

Question: For `C#CCN1CCc2onc(-c3ccccc3OC)c2C1=O`, which Potency is on record?
Answer: inconclusive: 35.5 µM [inhibitor, single point]

Question: Which Potency does the source give for `Cc1ccc([N+](=O)[O-])c2c1C(N1CCCC1)C(C)(C)O2` (stereo not drawn) here?
Answer: inconclusive: 79.4 µM [inhibitor, partial curve, poor fit]

Question: `O=c1c(-c2ccccc2)nc2cnc(N3CCOCC3)nc2n1Cc1ccc(F)cc1` was tested. Which Potency did it give?
Answer: inconclusive: 35.5 µM [inhibitor, single point]

Question: With `CCOC(=O)c1cccc(NS(=O)(=O)Cc2ccccc2)c1` as the molecule, how does the Potency read?
Answer: inconclusive: 100 µM [inhibitor, single point]

Question: With `COc1ccc(NS(=O)(=O)c2ccc3[nH]c4c(c3c2)CCCC4)cc1OC` as the molecule, how does the Potency read?
Answer: inconclusive: 63.1 µM [inhibitor, partial curve, poor fit]

Question: For `CN(C)c1ccc(Cl)c(NC(N)=S)c1`, which Potency is on record?
Answer: inconclusive: 89.1 µM [inhibitor, partial curve, poor fit]

Question: For `Fc1ccc(-n2c(-c3ccc4c(c3)OCO4)n[nH]c2=S)cc1Cl`, which Potency is on record?
Answer: inconclusive: 44.7 µM [inhibitor, partial curve, poor fit]

Question: For `O=S(=O)(C1CC1)N1CCn2c(nnc2C2CCCN2)C1` (stereo not drawn), which Potency is on record?
Answer: inconclusive: 3.16 µM [inhibitor, partial curve, poor fit]

Question: With `COc1cc(O)cc2oc(-c3ccccc3)cc(=O)c12` as the molecule, how does the Potency read?
Answer: inconclusive: 25.1 µM [inhibitor, partial curve, poor fit]

Question: With `CC(=O)Nc1ccc(NC(=O)c2ccc3c(c2)N(Cc2cccc(Cl)c2)C(=O)c2ccccc2S3(=O)=O)cc1` as the molecule, how does the Potency read?
Answer: inconclusive: 44.7 µM [inhibitor, full curve, poor fit]

Question: How did the Potency turn out when `Cc1cc(C)cc(C(=O)c2c(-c3ccccc3)cc3ccccn23)c1` was run?
Answer: inconclusive: 4.47 µM [inhibitor, full curve]

Question: Which Potency does the source give for `Cc1ccc(S(=O)(=O)NNC(=O)C2Cc3c(ccc4ccccc34)O2)cc1` (stereo not drawn) here?
Answer: inconclusive: 50.1 µM [inhibitor, single point]

Question: How did the Potency turn out when `CCN(CC)C1=NC(=O)C(CC(=O)Nc2cccc(C(=O)NCCc3ccccc3OC)c2)S1` (stereo not drawn) was run?
Answer: active: 1.12 µM

Question: For `CCOC(=O)c1cc(C(=O)Nc2sc3c(c2C#N)CCCC3)nn1C`, which Potency is on record?
Answer: inconclusive: 35.5 µM [inhibitor, partial curve, poor fit]

Question: `CN(Cc1ccccc1)C(=O)c1nc(-c2ccc(Cl)cc2)n2c1CCCCC2` was tested. Which Potency did it give?
Answer: inconclusive: 50.1 µM [inhibitor, partial curve, poor fit]

Question: How did the Potency turn out when `CC1(C(=O)Nc2cccc3ccccc23)CC1(Br)Br` (stereo not drawn) was run?
Answer: inconclusive: 44.7 µM [inhibitor, partial curve, poor fit]

Question: With `Cc1ccc(C(=O)Oc2cccc3c(OC(=O)c4cccc(C)c4)cccc23)cc1` as the molecule, how does the Potency read?
Answer: inactive

Question: For `Cc1ccc(-n2nc3c(=O)n(C(C)C(=O)NCc4ccco4)nc(C)c3c2C)cc1` (stereo not drawn), which Potency is on record?
Answer: inactive

Question: With `COCCN1C(=O)c2ccccc2C(C(=O)Nc2ccc(OC)cc2)C12CCCC2` (stereo not drawn) as the molecule, how does the Potency read?
Answer: inactive

Question: For `N#C/C(=C/c1ccc2c(c1)OCO2)C(=O)NCCc1c[nH]c2ccccc12`, which Potency is on record?
Answer: inactive

Question: Which Potency does the source give for `Cc1cc(OCCCn2ccnc2)cc(C)c1Cl` here?
Answer: inconclusive: 63.1 µM [inhibitor, partial curve, poor fit]

Question: `c1ccc2nc(N3CCN(Cc4ccc5c(c4)OCO5)CC3)cnc2c1` was tested. Which Potency did it give?
Answer: inconclusive: 79.4 µM [inhibitor, partial curve, poor fit]

Question: How did the Potency turn out when `COc1ccc(C(=O)Nc2ccc3nc(N4CCOCC4)sc3c2)cc1OC` was run?
Answer: inactive

Question: With `COc1ccc(Cn2nnnc2C(c2cc3ccc(OC)cc3[nH]c2=O)N2CCC(C)CC2)cc1` (stereo not drawn) as the molecule, how does the Potency read?
Answer: inconclusive: 44.7 µM [inhibitor, partial curve, poor fit]

Question: `CC(O)(c1ccc(F)c(F)c1)c1nc(-c2ccccc2)cs1` (stereo not drawn) was tested. Which Potency did it give?
Answer: inconclusive: 79.4 µM [inhibitor, single point]

Question: For `CC(C)(C)C(=O)NCC(=O)O`, which Potency is on record?
Answer: inconclusive: 89.1 µM [inhibitor, partial curve, poor fit]

Question: With `O=c1c2ccccc2nnn1CSc1nnc(C2COc3ccccc3O2)n1-c1ccccc1` (stereo not drawn) as the molecule, how does the Potency read?
Answer: inactive

Question: For `Oc1ccc(-c2csc(Nc3ccccn3)n2)cc1O`, which Potency is on record?
Answer: active: 20 µM

Question: With `CN(Cc1ccccc1)Cc1cn([C@H]2CO[C@H]3[C@@H]2OC[C@@H]3NS(C)(=O)=O)nn1` as the molecule, how does the Potency read?
Answer: inconclusive: 28.2 µM [inhibitor, full curve]

Question: With `Cc1[nH]n(-c2ccccc2)c(=O)c1C(c1cccc([N+](=O)[O-])c1O)c1c(C)[nH]n(-c2ccccc2)c1=O` as the molecule, how does the Potency read?
Answer: active: 25.1 µM

Question: With `Cc1ccc(NNC(=O)C(O)(c2cccc(C(F)(F)F)c2)c2cccc(C(F)(F)F)c2)cc1` as the molecule, how does the Potency read?
Answer: inactive

Question: Which Potency does the source give for `CCCC(C)NC(=O)c1cccs1` (stereo not drawn) here?
Answer: inactive

Question: `CC1CCc2sc(C(=O)Nc3nnc(SCc4ccc(F)cc4)s3)cc2C1` (stereo not drawn) was tested. Which Potency did it give?
Answer: inactive

Question: Which Potency does the source give for `O=C(COC(=O)c1ccc(Cl)nc1)Nc1ccc(N2CCCCC2)cc1` here?
Answer: inconclusive: 44.7 µM [inhibitor, partial curve, poor fit]

Question: `COC(=O)c1ccc(NC(=O)c2cccc(N3C(=O)CCC3=O)c2)cc1` was tested. Which Potency did it give?
Answer: inactive

Question: With `CCn1c2ccccc2c2cc(NC(=O)c3ccc(Br)o3)ccc21` as the molecule, how does the Potency read?
Answer: inconclusive: 8.91 µM [inhibitor, full curve, poor fit]

Question: How did the Potency turn out when `O=C(Nc1cccc(C(F)(F)F)c1)O[C@@H]1CO[C@H]2[C@@H]1OC[C@@H]2NC(=S)Nc1ccc(Cl)cc1` was run?
Answer: inconclusive: 50.1 µM [inhibitor, partial curve]

Question: How did the Potency turn out when `Cc1onc(-c2ccccc2Cl)c1C(=O)NC(=S)NCCc1ccccc1` was run?
Answer: inconclusive: 50.1 µM [inhibitor, full curve, poor fit]

Question: `CCn1cnc2c1c(=O)n(CC(=O)OCCOc1cccc(Cl)c1)c(=O)n2Cc1ccccc1` was tested. Which Potency did it give?
Answer: inconclusive: 22.4 µM [inhibitor, partial curve, poor fit]

Question: For `O=C(CS(=O)(=O)Cc1coc(-c2ccccc2)n1)N1CCCC1`, which Potency is on record?
Answer: inconclusive: 35.5 µM [inhibitor, partial curve, poor fit]

Question: With `C[C@H]1CN([C@@H](C)CO)C(=O)CCCn2nncc2CO[C@H]1CN(C)S(=O)(=O)c1ccccc1F` as the molecule, how does the Potency read?
Answer: inconclusive: 141 µM [inhibitor, single point]

Question: With `CC(C)c1nnc(NC(=O)c2ccc3ccccc3n2)s1` as the molecule, how does the Potency read?
Answer: inactive

Question: For `CCC(C)NC(=O)C1=CCN(S(=O)(=O)c2ccc(C)cc2)CC1` (stereo not drawn), which Potency is on record?
Answer: inactive

Question: For `O=C(NC1(C(F)(F)F)NC(=O)N(CCc2ccccc2)C1=O)c1ccc(Cl)cc1` (stereo not drawn), which Potency is on record?
Answer: inconclusive: 79.4 µM [inhibitor, partial curve, poor fit]

Question: `CC1CN(C2CCN(C(=O)c3cccc(Cl)c3)CC2)CC(C)O1` (stereo not drawn) was tested. Which Potency did it give?
Answer: inconclusive: 0.199 µM [inhibitor, full curve, poor fit]

Question: With `Cc1nc(COc2ccc(C(=O)N3CCc4ccccc43)cc2)no1` as the molecule, how does the Potency read?
Answer: inactive

Question: How did the Potency turn out when `Cc1ccccc1NCCC(=O)Nc1ccc(Cl)cc1` was run?
Answer: inconclusive: 79.4 µM [inhibitor, single point]

Question: Which Potency does the source give for `Oc1ccc(/C=N/n2cc(-c3ccccc3)[nH]c2=S)cc1` here?
Answer: active: 15.8 µM

Question: With `COc1ccc(C2Nc3ccccc3C(=O)N2O)cc1OC` (stereo not drawn) as the molecule, how does the Potency read?
Answer: inconclusive: 3.98 µM [inhibitor, full curve, poor fit]

Question: With `CCC(C)n1c(S(=O)(=O)O)nc2ccccc21` (stereo not drawn) as the molecule, how does the Potency read?
Answer: inconclusive: 22.4 µM [inhibitor, full curve, poor fit]

Question: How did the Potency turn out when `Cc1ccc(OCCn2c(=S)[nH]c3c(N)ncnc32)cc1` was run?
Answer: inconclusive: 50.1 µM [inhibitor, partial curve, poor fit]

Question: With `COc1ccccc1CNC(=O)CSCc1cnn(-c2ccccc2)c1-n1cccc1` as the molecule, how does the Potency read?
Answer: inactive

Question: With `CC(C(=O)Nc1cc(Cl)cc(Cl)c1)N1CCN(c2ccc(O)cc2)CC1` (stereo not drawn) as the molecule, how does the Potency read?
Answer: active: 20 µM

Question: How did the Potency turn out when `COc1ccc(-c2cc(C(=O)NC(C)c3ccccn3)c3ccccc3n2)cc1OC` (stereo not drawn) was run?
Answer: inconclusive: 44.7 µM [inhibitor, partial curve, poor fit]

Question: Which Potency does the source give for `CCOC(=O)/C=C(C)\C=C\c1c[nH]c2ccccc12` here?
Answer: inconclusive: 89.1 µM [inhibitor, single point]

Question: How did the Potency turn out when `Cc1nc2ccccc2n1CC(O)COc1ccccc1F` (stereo not drawn) was run?
Answer: inactive

Question: For `CC(C)CC(NS(C)(=O)=O)C(=O)O` (stereo not drawn), which Potency is on record?
Answer: inconclusive: 14.1 µM [inhibitor, full curve]

Question: How did the Potency turn out when `CC(C)NC(=O)/C=C/c1cccc(Cl)c1` was run?
Answer: inactive

Question: How did the Potency turn out when `Fc1ccc(CNC(=S)Nc2cccc3ccccc23)cc1` was run?
Answer: inconclusive: 44.7 µM [inhibitor, partial curve, poor fit]

Question: With `Cc1ccc(NC(=O)CN2C(=O)C3(SCC(=O)N3c3ccc(C)cc3)c3ccccc32)cc1` (stereo not drawn) as the molecule, how does the Potency read?
Answer: inactive

Question: For `Cc1ccc(-c2nnc(SCC(=O)NCC3CCCO3)nc2-c2ccc(C)cc2)cc1` (stereo not drawn), which Potency is on record?
Answer: inconclusive: 126 µM [inhibitor, single point]

Question: Which Potency does the source give for `O=C(Nc1ccc(C(F)(F)F)cc1)c1ccccc1Br` here?
Answer: inactive

Question: For `Cc1cc(C)c2c(-n3cccc3)c(C(=O)NNS(=O)(=O)c3ccc(Cl)cc3)sc2n1`, which Potency is on record?
Answer: inconclusive: 50.1 µM [inhibitor, partial curve, poor fit]
